Assay results taken from PMC4684349.
No constants are given. Whether binding was seen depends on the method and setting. Binding seen in cells or lysates may run through a third protein. Some binding calls cover weakened binding; strength is not graded here. For some of these results: Tags and fused reporters may be left off the sequences shown.

T1: VN-Bat1 (S. cerevisiae) (UniProt P38891)
T1 sequence: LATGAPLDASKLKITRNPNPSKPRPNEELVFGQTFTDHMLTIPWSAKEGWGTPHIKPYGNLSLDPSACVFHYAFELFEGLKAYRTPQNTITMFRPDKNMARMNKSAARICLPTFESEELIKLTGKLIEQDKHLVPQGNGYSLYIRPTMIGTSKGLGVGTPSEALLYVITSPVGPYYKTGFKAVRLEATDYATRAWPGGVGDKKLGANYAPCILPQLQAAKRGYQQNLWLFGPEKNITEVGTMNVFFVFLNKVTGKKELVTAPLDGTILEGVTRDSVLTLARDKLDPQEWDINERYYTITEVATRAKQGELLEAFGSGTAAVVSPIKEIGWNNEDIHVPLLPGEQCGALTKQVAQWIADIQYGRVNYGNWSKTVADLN

T2: Bat1-FLAG (S. cerevisiae) (UniProt P38891)
T2 sequence: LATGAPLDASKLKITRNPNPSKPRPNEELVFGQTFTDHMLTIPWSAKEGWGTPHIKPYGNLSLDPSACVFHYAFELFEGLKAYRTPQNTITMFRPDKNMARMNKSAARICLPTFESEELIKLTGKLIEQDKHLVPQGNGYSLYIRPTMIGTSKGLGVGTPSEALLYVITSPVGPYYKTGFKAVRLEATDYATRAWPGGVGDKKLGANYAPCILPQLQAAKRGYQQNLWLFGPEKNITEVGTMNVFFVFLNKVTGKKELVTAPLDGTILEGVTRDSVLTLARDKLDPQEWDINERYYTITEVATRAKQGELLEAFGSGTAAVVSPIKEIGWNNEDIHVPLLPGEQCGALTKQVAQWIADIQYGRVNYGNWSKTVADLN

T3: Bat1^K219R-FLAG (S. cerevisiae) (UniProt P38891)
T3 sequence: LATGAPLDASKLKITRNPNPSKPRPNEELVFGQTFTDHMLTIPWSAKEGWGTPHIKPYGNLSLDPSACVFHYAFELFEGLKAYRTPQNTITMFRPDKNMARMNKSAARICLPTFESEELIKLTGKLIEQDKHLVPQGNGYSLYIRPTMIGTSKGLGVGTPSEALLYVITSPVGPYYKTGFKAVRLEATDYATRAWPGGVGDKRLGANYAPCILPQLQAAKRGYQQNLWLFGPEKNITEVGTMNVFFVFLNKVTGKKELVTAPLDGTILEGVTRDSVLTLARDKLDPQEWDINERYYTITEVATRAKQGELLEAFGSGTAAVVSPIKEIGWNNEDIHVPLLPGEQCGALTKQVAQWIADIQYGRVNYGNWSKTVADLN


Legend:
VN-Bat1 (S. cerevisiae) = biological target: T1, VN-Bat1 (S. cerevisiae); experiment: split reporter; bimolecular fluorescence complementation of Venus halves in diploid yeast cells; SC (+leu), or SC-leu for 2 h (signal reduced); microscopy with MitoTracker Red
[1] = biological target: T2, Bat1-FLAG (S. cerevisiae); experiment: co-IP; FLAG immunoprecipitation from lysates of yeast cells expressing a GFP-tagged protein and BAT1-FLAG, BAT1^K219R-FLAG or empty vector; immunoblot with anti-FLAG and anti-GFP; cells in SC-ura: no treatment, 200 nM rapamycin 30 min, or readdition of leucine or KIC for 1 hr after 2 hr leucine starvation
[2] = biological target: T3, Bat1^K219R-FLAG (S. cerevisiae); experiment: as above
[3] = biological target: T2, Bat1-FLAG (S. cerevisiae); experiment: condition: only 2 hr leucine starvation of the cells; co-IP; as a2, but cells harvested after 2 hr leucine starvation (-leu)

binding (VN-Bat1 (S. cerevisiae)) | binding [1] | binding [2] | binding [3] | Binder
binds | – | – | – | Aco1-VC (enzyme, UniProt P19414 17-778) ATVSNLTRDSKVNQNLLEDHSFINYKQNVETLDIVRKRLNRPFTYAEKILYGHLDDPHGQDIQRGVSYLKLRPDRVACQDATAQMAILQFMSAGLPQVAKPVTVHCDHLIQAQVGGEKDLKRAIDLNKEVYDFLASATAKYNMGFWKPGSGIIHQIVLENYAFPGALIIGTDSHTPNAGGLGQLAIGVGGADAVDVMAGRPWELKAPKILGVKLTGKMNGWTSPKDIILKLAGITTVKGGTGKIVEYFGDGVDTFSATGMGTICNMGAEIGATTSVFPFNKSMIEYLEATGRGKIADFAKLYHKDLLSADKDAEYDEVVEIDLNTLEPYINGPFTPDLATPVSKMKEVAVANNWPLDVRVGLIGSCTNSSYEDMSRSASIVKDAAAHGLKSKTIFTVTPGSEQIRATIERDGQLETFKEFGGIVLANACGPCIGQWDRRDIKKGDKNTIVSSYNRNFTSRNDGNPQTHAFVASPELVTAFAIAGDLRFNPLTDKLKDKDGNEFMLKPPHGDGLPQRGYDAGENTYQAPPADRSTVEVKVSPTSDRLQLLKPFKPWDGKDAKDMPILIKAVGKTTTDHISMAGPWLKYRGHLENISNNYMIGAINAENKKANCVKNVYTGEYKGVPDTARDYRDQGIKWVVIGDENFGEGSSREHAALEPRFLGGFAIITKSFARIHETNLKKQGLLPLNFKNPADYDKINPDDRIDILGLAELAPGKPVTMRVHPKNGKPWDAVLTHTFNDEQIEWFKYGSALNKIKADEKK
– | binds | binds | no binding | Aco1-GFP (enzyme, UniProt P19414 17-778) ATVSNLTRDSKVNQNLLEDHSFINYKQNVETLDIVRKRLNRPFTYAEKILYGHLDDPHGQDIQRGVSYLKLRPDRVACQDATAQMAILQFMSAGLPQVAKPVTVHCDHLIQAQVGGEKDLKRAIDLNKEVYDFLASATAKYNMGFWKPGSGIIHQIVLENYAFPGALIIGTDSHTPNAGGLGQLAIGVGGADAVDVMAGRPWELKAPKILGVKLTGKMNGWTSPKDIILKLAGITTVKGGTGKIVEYFGDGVDTFSATGMGTICNMGAEIGATTSVFPFNKSMIEYLEATGRGKIADFAKLYHKDLLSADKDAEYDEVVEIDLNTLEPYINGPFTPDLATPVSKMKEVAVANNWPLDVRVGLIGSCTNSSYEDMSRSASIVKDAAAHGLKSKTIFTVTPGSEQIRATIERDGQLETFKEFGGIVLANACGPCIGQWDRRDIKKGDKNTIVSSYNRNFTSRNDGNPQTHAFVASPELVTAFAIAGDLRFNPLTDKLKDKDGNEFMLKPPHGDGLPQRGYDAGENTYQAPPADRSTVEVKVSPTSDRLQLLKPFKPWDGKDAKDMPILIKAVGKTTTDHISMAGPWLKYRGHLENISNNYMIGAINAENKKANCVKNVYTGEYKGVPDTARDYRDQGIKWVVIGDENFGEGSSREHAALEPRFLGGFAIITKSFARIHETNLKKQGLLPLNFKNPADYDKINPDDRIDILGLAELAPGKPVTMRVHPKNGKPWDAVLTHTFNDEQIEWFKYGSALNKIKADEKK
